Reference: patent publication US6653286B1, “Gonadotropin releasing hormone antagonist” (Akzo Nobel NV, priority 1997, dated 2003)
Square brackets hold non-standard residues; d marks the D form. Peptide text beside a SMILES is read from it. d(hArg(Et2)) = CCN=C(NCC)NCCCC[C@@H](N)C(=O)O; hArg(Et2) = CCN=C(NCC)NCCCC[C@H](N)C(=O)O; dPhe(4-Cl) = N[C@H](Cc1ccc(Cl)cc1)C(=O)O; d2Nal = N[C@H](Cc1ccc2ccccc2c1)C(=O)O; d3Pal = N[C@H](Cc1cccnc1)C(=O)O

System: premature LH surges
Test: phase II double-blind dose-finding study of ganirelix in women undergoing controlled ovarian hyperstimulation with recFSH
Format: in vivo, human
Protocol: In order to establish the minimum effective dose of ganirelix to prevent premature LH surges in women undergoing COH with recombinant FSH, a double-blind dose-finding study was performed with 6 test doses ranging between 2 mg and 0.0625 mg ganirelix.
This study was a phase II, multi-centre, double-blind, randomized, dose-finding study to assess the efficacy of the GnRH-antagonist ganirelix to prevent premature LH surges in women undergoing controlled ovarian hyperstimulation with recFSH. The dosages of ganirelix are administered by one daily SC administration.
RecFSH treatment started on day 2 of the menstrual cycle (treatment day -5) by a once daily SC injection. From treatment day -5 through day -1 the dose of recFSH was fixed at 150 IU daily. After 5 days of recFSH treatment (day 7 of the menstrual cycle), ganirelix treatment was started by daily SC administration. Treatment continued until and including the last day of recFSH administration. During ganirelix treatment, the dose of recFSH was adjusted depending on the individual ovarian response as assessed by daily ultra sonographic scan (USS). As soon as at least 3 folicles ≧17 mm measured by USS were observed, hCG was administered for ovulation induction. About 30-36 hours thereafter oocyte pick-up was performed followed by in vitro fertilization (IVF) with or without intracytoplasmic sperm injection (ICSI). No more than 3 embryos were replaced.
If during ganirelix treatment a premature LH rise occurred e.g. at least one value of serum LH ≧15 IU/L according to the local LH immunoassay the investigator canceled the cycle or tried to rescue the cycle by giving hCG prematurely. In addition, the investigator notified the sponsor about the occurrence of the LH rise and the central laboratory was requested to confirm the LH rise was ≧10 IU/L according to the central LH immunoassay. Subsequently, all data of such subject with a premature LH rise were forwarded to an Independent Advisory Committee which was installed in order to advice on stopping a treatment arm in case of LH rises during ganirelix treatment.
During the study, some investigators informed the sponsor on one or more cases of extremely low serum LH and failing estradiol concentrations as well as follicle growth arrest after starting ganirelix treatment. For this reason the External Independent Advisory Committee was requested to review all clinical data available in order to evaluate whether these observations were dose related and whether, in their opinion, there was reason to stop one or more treatment arms.
In addition, the Independent Advisory Committee reviewed all rises of LH (≧15 IU/L according to the local LH immunoassay and ≧10 IU/L according to the central LH immunoassay) during ganirelix treatment. Based on their evaluation the External Committee advised the sponsor to stop the highest (2 mg) and lowest (0.0625 mg) treatment dose of ganirelix. The study was completed for the other dosage groups.
In total 333 subjects started recFSH treatment and 332 subjects started ganirelix treatment. Because of major protocol violation 3 subjects were excluded from the analysis. The final number of patients per dosing group are included in Table 1.

What does the source list for `CCN=C(NCC)NCCCC[C@H](NC(=O)[C@H](CC(C)C)NC(=O)[C@@H](CCCCNC(=NCC)NCC)NC(=O)[C@H](Cc1ccc(O)cc1)NC(=O)[C@H](CO)NC(=O)[C@@H](Cc1cccnc1)NC(=O)[C@@H](Cc1ccc(Cl)cc1)NC(=O)[C@@H](Cc1ccc2ccccc2c1)NC(C)=O)C(=O)N1CCC[C@H]1C(=O)N[C@H](C)C(N)=O` [ganirelix, N-Acetyl-3-(2-naphtyl)-D-alanyl-4-chloro-D-phenylalanyl-3-(3-pyridyl)-D-alanyl-L-seryl-L-tyrosyl-N^ω,N^ω-diethyl-D-homoarginyl-L-leucin-N^ω,N^ω-diethyl-Lhomoarginyl-L-propyl-D-alanylamide acetate] (Ac-[d2Nal][dPhe(4-Cl)][d3Pal]SY[d(hArg(Et2))]L[hArg(Et2)]P[dA]-NH2)?
Median serum FSH at the day of hCG (= last day of ganirelix) (0.0625 mg daily SC): 9.1 IU/L; Median serum FSH at the day of hCG (= last day of ganirelix) (0.125 mg daily SC): 9.0 IU/L; Median serum FSH at the day of hCG (= last day of ganirelix) (0.25 mg daily SC): 9.1 IU/L; Median serum FSH at the day of hCG (= last day of ganirelix) (0.5 mg daily SC): 10.2 IU/L; Median serum FSH at the day of hCG (= last day of ganirelix) (1 mg daily SC): 9.8 IU/L; Median serum FSH at the day of hCG (= last day of ganirelix) (2 mg daily SC): 8.8 IU/L
